Measurements: US6706766
No constants are given. Whether binding was seen depends on the method and setting. Some entries that bind do so weakly or less than the wild type.

Sequences of proteins named here, by UniProt entry; tags and fusion partners are left off. Residues count along the entry.
UniProt Q07817, residues 1-209: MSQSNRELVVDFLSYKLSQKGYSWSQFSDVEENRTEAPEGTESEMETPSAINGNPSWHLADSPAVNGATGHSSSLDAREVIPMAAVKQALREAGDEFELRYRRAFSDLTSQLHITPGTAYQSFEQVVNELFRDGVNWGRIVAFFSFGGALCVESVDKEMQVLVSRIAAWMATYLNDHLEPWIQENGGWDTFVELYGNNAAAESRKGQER

Molecular target: ^15N-labeled Bcl-xL (UniProt Q07817)
Assay: NMR titration, 15N/1H HSQC

binding: binds
Binder: KGGGQVGRQLAIIGDDINR [Bak BH3 peptide (unlabeled)]
